From patent US10869871B2, “Compositions and methods of modulating short-chain dehydrogenase activity” (CASE WESTERN RESERVE UNIVERSITY, priority 2013, dated 2020)
Not every entry of the source has a single result; some have several. The other results are left out here. The source may hold further records. Values given together do not match, cause unknown; they may come from other doses, times, organisms or constructs than stated.

Test system: 15-PGDH protein
Assay: Western blot of 15-PGDH protein levels in treated cell lines
Assay type: cell-based
Conditions: western blot / immuno-fluorescence

## COc1ccc(-c2cc(C(F)(F)F)n3nc(C(=O)N4CCCCC4)cc3n2)cc1
  15-PGDH protein levels in colon cell lines: increases 15-PGDH protein levels and increase in 15-PGDH protein levels
